Publication PMC5438655
No constants are given. Whether binding was seen depends on the method and setting. Binding seen in cells or lysates may run through a third protein. Some entries that bind do so weakly or less than the wild type.

Target: GST H-Ras (UniProt P01112)
Assay: pull-down; GST pull-down with glutathione sepharose from lysates of HEK 293T cells co-expressing bait and prey; 0.5% NP-40, 150 mM NaCl, 10 mM HEPES; 3-4 hours at 4°C; western blot

binding: binds
Substance: Venus-Flag Aurora B (from UniProt Q96GD4 1-344)
